Laboratory results published in publication PMC5601897, “The catalytic subunit of DNA polymerase δ inhibits γTuRC activity and regulates Golgi-derived microtubules” (Nature Communications, 2017).
Like-named read-outs stand apart in the source and are kept apart here. Results are given in words; binding and its absence hold for the method and conditions named. In cells and extracts the contact can be indirect. A yes stands for co-enrichment or nearness to the bait. Other partners may have been found. A no says only that the protein was not detected with the bait. Tags and fused reporters may be left off the sequences shown.

Chains of the proteins cited; added tags and fusions are not shown. Lines headed by an entry give the natural chain unless they say otherwise; changes in a name come on top.
UniProt P49005: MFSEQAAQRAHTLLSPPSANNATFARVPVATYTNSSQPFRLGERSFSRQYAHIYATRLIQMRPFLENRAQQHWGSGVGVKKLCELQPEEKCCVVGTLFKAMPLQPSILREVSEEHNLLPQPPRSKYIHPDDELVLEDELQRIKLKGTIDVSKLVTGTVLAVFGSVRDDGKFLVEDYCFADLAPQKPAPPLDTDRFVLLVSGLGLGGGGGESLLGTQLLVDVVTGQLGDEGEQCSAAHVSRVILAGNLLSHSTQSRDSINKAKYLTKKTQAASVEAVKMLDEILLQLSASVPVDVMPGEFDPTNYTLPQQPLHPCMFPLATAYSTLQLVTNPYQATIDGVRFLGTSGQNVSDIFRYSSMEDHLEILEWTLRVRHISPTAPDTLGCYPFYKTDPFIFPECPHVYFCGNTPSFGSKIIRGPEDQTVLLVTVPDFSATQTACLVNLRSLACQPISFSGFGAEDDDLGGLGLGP
UniProt P28340: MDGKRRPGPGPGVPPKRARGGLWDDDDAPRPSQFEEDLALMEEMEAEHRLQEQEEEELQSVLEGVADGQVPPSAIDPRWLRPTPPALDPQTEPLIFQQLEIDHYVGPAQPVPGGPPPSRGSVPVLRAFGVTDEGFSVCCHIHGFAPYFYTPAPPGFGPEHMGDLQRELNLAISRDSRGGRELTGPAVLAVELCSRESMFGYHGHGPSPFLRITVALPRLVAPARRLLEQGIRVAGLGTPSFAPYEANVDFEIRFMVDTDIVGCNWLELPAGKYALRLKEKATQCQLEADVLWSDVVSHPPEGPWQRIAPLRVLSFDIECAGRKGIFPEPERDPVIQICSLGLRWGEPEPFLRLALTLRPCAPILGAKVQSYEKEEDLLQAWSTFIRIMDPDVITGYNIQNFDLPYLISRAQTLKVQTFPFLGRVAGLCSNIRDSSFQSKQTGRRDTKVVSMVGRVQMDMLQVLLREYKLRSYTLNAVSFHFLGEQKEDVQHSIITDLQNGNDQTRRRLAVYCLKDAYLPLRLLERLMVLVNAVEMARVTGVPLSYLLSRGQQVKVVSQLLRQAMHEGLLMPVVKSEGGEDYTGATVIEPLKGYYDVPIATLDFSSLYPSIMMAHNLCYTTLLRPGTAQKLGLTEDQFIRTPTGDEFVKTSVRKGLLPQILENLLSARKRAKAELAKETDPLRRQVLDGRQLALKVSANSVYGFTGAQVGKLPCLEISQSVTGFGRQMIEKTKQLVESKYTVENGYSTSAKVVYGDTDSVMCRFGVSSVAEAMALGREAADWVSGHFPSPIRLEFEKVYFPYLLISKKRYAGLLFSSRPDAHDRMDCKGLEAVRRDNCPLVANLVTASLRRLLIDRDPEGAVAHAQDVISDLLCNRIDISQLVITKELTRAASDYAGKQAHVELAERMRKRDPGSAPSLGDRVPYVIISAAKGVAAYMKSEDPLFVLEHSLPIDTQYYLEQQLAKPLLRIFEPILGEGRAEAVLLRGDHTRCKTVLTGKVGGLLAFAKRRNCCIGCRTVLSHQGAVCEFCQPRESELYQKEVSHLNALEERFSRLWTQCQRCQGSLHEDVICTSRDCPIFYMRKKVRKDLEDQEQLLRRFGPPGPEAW

T1: FLAG-2 × TEV-SBP-CDK5RAP2(1–100) (UniProt Q96SN8)
T1 sequence: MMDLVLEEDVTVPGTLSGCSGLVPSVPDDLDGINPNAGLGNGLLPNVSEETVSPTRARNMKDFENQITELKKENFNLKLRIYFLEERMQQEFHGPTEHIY

B1: PolD3, endogenous (protein, UniProt Q15054 1-466)
chain: MADQLYLENIDEFVTDQNKIVTYKWLSYTLGVHVNQAKQMLYDYVERKRKENSGAQLHVTYLVSGSLIQNGHSCHKVAVVREDKLEAVKSKLAVTASIHVYSIQKAMLKDSGPLFNTDYDILKSNLQNCSKFSAIQCAAAVPRAPAESSSSSKKFEQSHLHMSSETQANNELTTNGHGPPASKQVSQQPKGIMGMFASKAAAKTQETNKETKTEAKEVTNASAAGNKAPGKGNMMSNFFGKAAMNKFKVNLDSEQAVKEEKIVEQPTVSVTEPKLATPAGLKKSSKKAEPVKVLQKEKKRGKRVALSDDETKETENMRKKRRRIKLPESDSSEDEVFPDSPGAYEAESPSPPPPPSPPLEPVPKTEPEPPSVKSSSGENKRKRKRVLKSKTYLDGEGCIVTEKVYESESCTDSEEELNMKTSSVHRPPAMTVKKEPREERKGPKKGTAALGKANRQVSITGFFQRK
B2: PolD4, endogenous (protein, UniProt Q9HCU8 1-107)
chain: MGRKRLITDSYPVVKRREGPAGHSKGELAPELGEEPQPRDEEEAELELLRQFDLAWQYGPCTGITRLQRWCRAKQMGLEPPPEVWQVLKTHPGDPRFQCSLWHLYPL

Tests used:
[1] = target: T1, FLAG-2 × TEV-SBP-CDK5RAP2(1–100); assay: affinity purification with mass spectrometry; anti-FLAG immunoprecipitation of FLAG-2 × TEV-SBP-CDK5RAP2(1–100) from a 1:1 mixture of transfected and untransfected HEK293T cell extracts (lysis buffer with 0.5% IGEPAL CA-630, 0.2 mM GTP, 4 °C, 2 h), no streptavidin pulldown; elution with FLAG peptide, SDS-PAGE bands, trypsin, LC-MS, MASCOT
[2] = target: T1, FLAG-2 × TEV-SBP-CDK5RAP2(1–100); assay: as above; remark: listed apart in the source

Molecule | binding [1] | binding [2]
PolD2, endogenous (from UniProt P49005 1-469) | no binding | –
DNA polymerase δ catalytic subunit (PolD1), endogenous (from UniProt P28340 1-1107) | binds | –
B1 | – | no binding
B2 | – | no binding
